Data on one substance can be found in article PMC12733700.

Results are given in words; binding and its absence hold for the method and conditions named. Binding seen in cells or lysates may run through a third protein. A result given as binding can be weak or reduced; the word gives no strength.

This assay addresses T1, 6-phosphofructo-2-kinase/fructose-2,6-biphosphatase 3 (mouse (endogenous in C2C12 and in C57BL/6 tibialis anterior muscle)) (UniProt Q7TS91).
T1 sequence: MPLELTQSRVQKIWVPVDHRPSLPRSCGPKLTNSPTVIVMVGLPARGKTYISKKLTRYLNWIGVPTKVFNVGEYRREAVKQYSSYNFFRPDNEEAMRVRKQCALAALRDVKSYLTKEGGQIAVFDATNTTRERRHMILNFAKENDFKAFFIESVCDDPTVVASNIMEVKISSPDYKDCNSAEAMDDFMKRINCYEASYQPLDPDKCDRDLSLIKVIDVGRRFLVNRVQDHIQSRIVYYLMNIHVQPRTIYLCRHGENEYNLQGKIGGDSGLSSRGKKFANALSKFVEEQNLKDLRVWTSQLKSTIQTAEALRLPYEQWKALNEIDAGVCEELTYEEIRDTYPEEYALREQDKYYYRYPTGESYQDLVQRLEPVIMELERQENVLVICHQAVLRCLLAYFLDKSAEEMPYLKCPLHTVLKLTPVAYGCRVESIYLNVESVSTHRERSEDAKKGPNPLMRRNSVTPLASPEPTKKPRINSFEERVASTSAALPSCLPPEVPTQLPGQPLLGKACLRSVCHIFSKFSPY
The experiment in a line: co-IP; total protein from mouse TA muscles 5 days after cardiotoxin injection in RIPA lysis buffer, precleared with anti-species-specific IgG beads, incubated with PFKFB3 and ADK antibodies for 3 h at 4 °C, then protein A/G agarose beads; Western blotting. In general terms: In western blotting, separated proteins are transferred to a membrane and probed.

Turning to Myosin, the binding result is given as “binds”.
